Assay results published in PubChem BioAssay AID2685 (National Center for Advancing Translational Sciences (NCATS), 2010).
The whole screen tested about 320,000 compounds, of which about 2,100 (0.66%) were called active. This list was built around the results that the source calls inconclusive (neither active nor inactive); the mix of calls is not that of the screen. Calls follow the shape of the dose curve; as a rule, active = well fitted inhibition curve with a large enough effect in the signal ratio, with a control signal flat (not every such curve was filed as active); inconclusive = small, poorly fitted or top-dose-only effect, or effect the other way, or a change in a side signal; inactive = flat fitted curve, though single readings scatter; the % refers to the signal ratio. Potencies of inconclusive entries are doubtful fits and often do not repeat.

assay: qHTS Assay for Lipid Storage Modulators in Drosophila S3 Cells; conditions: BODIPY lipid droplet fluorescence, 18-24 h, cells fed with added oleic acid; lipid storage change, negative = inhibition: at 46.1 µM (top of the series) unless noted
Outline: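 Drosophila S3 cells got compounds at several concentrations plus oleic acid (400 uM solution). Laser-scanning cytometry with 488 nm excitation read lipid droplets at 500-530 nm and cells at 575-640 nm. Percent activity was relative to 20 uM Triacsin C.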
% is scaled to controls: 0 for no effect and ±100 for the full control effect; potency is read from the fitted curve at half-maximal effect.

Row | Compound | Potency | lipid storage change, negative = inhibition
1 | O=C(/C=C/c1ccc2c(c1)OCO2)c1ccccn1 | inconclusive: 29.1 µM [falling, single point] | –
2 | Cc1ccc(Cl)cc1N1CCN(S(=O)(=O)c2cc3c(cc2C)NC(=O)CO3)CC1 | – | inconclusive: -76.9%
3 | CN(CC(=O)N1CCN(Cc2ccccc2)CC1)C(=O)Cc1cccc2ccccc12 | inconclusive: 2.06 µM [falling, partial curve] | –
4 | CCOCCCNC(=O)C(NC(=O)c1ccc(=O)[nH]c1)c1ccccc1 (stereo unspecified) | – | inconclusive: -37.8%
5 | Cn1c(=O)c(C(=O)NCCO)c(O)c2ccccc21 | – | inconclusive: -10.5%
6 | Cn1cccc1Cc1nnc(SCC(=O)N2CCc3ccccc32)n1-c1ccc(F)cc1 | – | inconclusive: -7.97%
7 | O=C(CCN1C(=O)/C(=C/c2cccs2)SC1=S)Nc1ccc(C(=O)O)cc1 | – | inconclusive: -35%
8 | Cc1cc(C(=O)COc2ccccc2C(N)=O)c(C)n1C1CC1 | inconclusive: 0.82 µM [activator, single point] | –
9 | COc1ccc(CCNC(=O)c2cc(-c3ccc(Cl)c(Cl)c3)oc2C)cc1 | – | inconclusive: -33.6%
10 | COc1ccc(OC)c(N(CC(=O)Nc2cccc(C(F)(F)F)c2)S(C)(=O)=O)c1 | inconclusive: 29.1 µM [activator, single point] | –
11 | Cc1ccc(C)c(S(=O)(=O)N2CCCC2CNC(=O)C(=O)NCCc2ccco2)c1 (stereo unspecified) | – | inconclusive: 24.6%
12 | Cc1cccc(C(=O)NNC(=O)CCC(=O)Nc2cccc(Cl)c2C)c1 | inconclusive: 2.06 µM [activator, partial curve, poor fit] | –
13 | O=C(CCN1C(=O)C2CC=CCC2C1=O)Nc1nccs1 (stereo unspecified) | inconclusive: 29.1 µM [activator, single point] | –
14 | COc1cc(C(=O)OCCCN2CCOCC2)ccc1O | – | inconclusive: 43.7%
15 | O=C(NC(Cc1c[nH]c2ccccc12)C(=O)NCCCN1CCOCC1)c1cccs1 (stereo unspecified) | – | inconclusive: -56.5%
16 | O=C1CCC([N+](=O)[O-])C(c2cccc([N+](=O)[O-])c2)N1 (stereo unspecified) | – | inconclusive: -1.78%
17 | CCCc1cc(=O)oc2c3c(cc(OCC(=O)NCc4ccncc4)c12)OC(C)(C)CC3 | – | inconclusive: -43%
18 | O=C1c2ccccc2C(=O)N1c1cccnc1 | active: 25.9 µM | –
19 | CN(C)S(=O)(=O)c1ccc(N2CCCC2)c(C(=O)Nc2ccccc2Br)c1 | – | inconclusive: 1.22%
20 | COc1ccc2c(c1)CCc1c(C(=O)Nc3ccc(OC)c(OC)c3)noc1-2 | – | inconclusive: -1.66%
21 | COc1ccc(S(=O)(=O)N2CCC(C(N)=O)CC2)c2ccccc12 | inconclusive: 0.13 µM [falling, full curve, poor fit] | –
